The other results are listed elsewhere or left out. The data scatter; read single values as rough.
How the values were obtained:
[1] = compound: ClCC(=O)N[C@@H]1CCCc2ccccc12; test: log2 mean competition ratio of IA-DTB cysteine labelling (DMSO/compound) (log2 ratio); higher = stronger cysteine engagement by compound; details: treatment time: 4 h, cell line lysate: HEK293T
Method: (§1)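 IA-DTB competitive cysteine chemoproteomics in HEK293T RIPA lysate. Lysates were treated with compound 29 or 30 at 50 or 200 µM for 4 h, then IA-DTB (500 µM, 1 h), trypsin-digested, NeutrAvidin-enriched and analysed by diaPASEF. Competition ratio = intensity DMSO / intensity compound (n=4 treated, n=64 DMSO); binding: mean log2 CR ≥ 1 and p ≤ 0.05 plus QC filters. Target is the cysteine site.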

[2] = compound: ClCC(=O)N[C@H]1CCCc2ccccc12; test: as above; details: treatment time: 4 h, cell line lysate: HEK293T
Method: as §1

Row | Target | log2 mean competition ratio ([1]; 50 µM) | log2 mean competition ratio ([1]; 200 µM) | log2 mean competition ratio ([2]; 50 µM) | log2 mean competition ratio ([2]; 200 µM)
1 | DDX23 C409 (UniProt Q9BUQ8) | 0.0804 | -0.268 | -0.135 | -0.195
2 | DDX41 C264 (UniProt Q9UJV9) | -0.0818 | -0.0811 | -0.397 | 0.0352
3 | CTBP2 C60 (UniProt P56545) | -0.233 | -0.0059 | -0.226 | 0.0119
4 | DCAF5 C728 (UniProt Q96JK2) | -0.059 | 0.245 | -0.231 | 0.243
5 | DENND10P1;DENND10 C135;(C135) | -0.1 | -0.0835 | -0.135 | -0.0414
6 | CTU1 C237 (UniProt Q7Z7A3) | -0.03 | 0.218 | 0.105 | 0.146
7 | DCAF5 C503 (UniProt Q96JK2) | 0.0981 | 0.437 | -0.454 | 0.126
8 | CTSC C337 (UniProt P53634) | -0.0266 | 0.0895 | 0.0107 | -0.0265
9 | CUL2 C266 (UniProt Q13617) | -0.0943 | 0.049 | -0.145 | 0.0605
10 | DDX28 C453 (UniProt Q9NUL7) | 0.151 | 0.00405 | -0.00781 | 0.153
11 | DDX20 C758 (UniProt Q9UHI6) | 0.00149 | 0.0553 | -0.164 | 0.0518
12 | DCAF15 C211 (UniProt Q66K64) | -0.146 | 0.117 | 0.0787 | 0.168
13 | CRYZL1 C177 (UniProt O95825) | 0.0661 | -0.154 | 0.161 | -0.14
14 | DARS2 C459 (UniProt Q6PI48) | 0.0447 | 0.327 | -0.207 | 0.297
15 | DDX6 C390 (UniProt P26196) | -0.0283 | -0.285 | -0.197 | -0.118
16 | DCAF6 C513 (UniProt Q58WW2) | -0.0744 | -0.106 | 0.0668 | -0.0492
17 | CWF19L1 C511 (UniProt Q69YN2) | -0.284 | -0.126 | -0.127 | -0.031
18 | DDX24 C639 (UniProt Q9GZR7) | -0.23 | 0.243 | -0.104 | -0.0683
19 | CWF19L2 C347 (UniProt Q2TBE0) | 0.311 | 0.33 | 0.0242 | 0.281
20 | CRBN C326 (UniProt Q96SW2) | -0.281 | 0.28 | -0.594 | 0.326
21 | CUL1 C752 (UniProt Q13616) | -0.157 | -0.368 | 0.104 | -0.142
22 | CTC1 C837 (UniProt Q2NKJ3) | -0.211 | -0.0192 | -0.154 | -0.0345
23 | CUL9 C1281 (UniProt Q8IWT3) | -0.173 | 0.061 | -0.299 | 0.208
24 | DDX39A C238 (UniProt O00148) | 0.141 | 0.0524 | -0.039 | 0.0419

Full records, quoted from the list. Values in the order: log2 mean competition ratio ([1]; 50 µM) | log2 mean competition ratio ([1]; 200 µM) | log2 mean competition ratio ([2]; 50 µM) | log2 mean competition ratio ([2]; 200 µM)
DDX20 C758 (UniProt Q9UHI6) as listed: 0.00149 | 0.0553 | -0.164 | 0.0518
CWF19L2 C347 (UniProt Q2TBE0) as listed: 0.311 | 0.33 | 0.0242 | 0.281
CUL9 C1281 (UniProt Q8IWT3) as listed: -0.173 | 0.061 | -0.299 | 0.208

Next entries follow.

Row | Target | log2 mean competition ratio ([1]; 50 µM) | log2 mean competition ratio ([1]; 200 µM) | log2 mean competition ratio ([2]; 50 µM) | log2 mean competition ratio ([2]; 200 µM)
25 | CYFIP1 C428 | 0.165 | -0.654 | -0.378 | -0.518
26 | CUL1 C170 (UniProt Q13616) | -0.233 | -0.0744 | -0.284 | -0.268
27 | CUL4B C264 | -0.27 | -0.0309 | -0.0031 | 0.0358
28 | CUL1 C291 (UniProt Q13616) | -0.103 | -0.304 | 0.191 | -0.237
29 | DCAF10 C479 (UniProt Q5QP82) | -0.306 | -0.0104 | -0.135 | 0.186
30 | DDX39A C164 (UniProt O00148) | 0.242 | -0.229 | 0.33 | -0.212
31 | CUL4A C241 (UniProt Q13619) | -0.301 | -0.151 | -0.013 | 0.0392
32 | DCAF1 C1070 (UniProt Q9Y4B6) | 0.178 | 0.0199 | -0.0236 | -0.0279
33 | DDX31 C464 (UniProt Q9H8H2) | -0.000409 | -0.241 | -0.0557 | -0.245
34 | DENND1A C338 (UniProt Q8TEH3) | -0.141 | -0.259 | -0.343 | -0.106
35 | CYB5B C119 | 0.142 | 0.151 | 0.257 | 0.357
36 | CYC1 C271 (UniProt P08574) | 0.0897 | -0.0892 | -0.0181 | 0.0313
37 | DCBLD2 C725 (UniProt Q96PD2) | -0.142 | 0.193 | -0.0756 | 0.000207
38 | CSRP2 C122 (UniProt Q16527) | 0.081 | 0.17 | -0.159 | 0.151
39 | CSTF2T C441 (UniProt Q9H0L4) | 0.00755 | -0.0928 | 0.163 | -0.117
40 | DDX55 C161 (UniProt Q8NHQ9) | 0.00854 | 0.109 | -0.0899 | 0.138
41 | DCPS C37 (UniProt Q96C86) | -0.101 | -0.242 | -0.253 | -0.302
42 | CYFIP2 C423 (UniProt Q96F07) | 0.0602 | -0.38 | -0.172 | -0.497
43 | CUL3 C298 (UniProt Q13618) | 0.0136 | 0.0718 | -0.0182 | 0.115
44 | DARS1 C334 | -0.246 | -0.124 | 0.114 | -0.0884
45 | DCAF4 C88 (UniProt Q8WV16) | 0.0854 | -0.256 | 0.0327 | 0.0234
46 | CRYBG3 C898 (UniProt Q68DQ2) | 0.139 | 0.0761 | -0.0363 | 0.29
47 | CT45A6;CT45A5;CT45A10;CT45A7;CT45A8;CT45A9;CT45A2;CT45A1;CT45A3 C22;(C22);(C22);(C22);(C22);(C22);(C22);(C22);(C22) | -0.0981 | 0.0495 | -0.159 | 0.0112

Source: the supplement of paper PMC11732987, “Enantioselective OTUD7B fragment discovery through chemoproteomics screening and high-throughput optimisation” (Communications Chemistry, 2025)
